# Measurements: PubChem BioAssay (Tox21)
# The chains behind the UniProt entries cited, without tags or fusion partners.
# UniProt P14416, whole entry, looked up: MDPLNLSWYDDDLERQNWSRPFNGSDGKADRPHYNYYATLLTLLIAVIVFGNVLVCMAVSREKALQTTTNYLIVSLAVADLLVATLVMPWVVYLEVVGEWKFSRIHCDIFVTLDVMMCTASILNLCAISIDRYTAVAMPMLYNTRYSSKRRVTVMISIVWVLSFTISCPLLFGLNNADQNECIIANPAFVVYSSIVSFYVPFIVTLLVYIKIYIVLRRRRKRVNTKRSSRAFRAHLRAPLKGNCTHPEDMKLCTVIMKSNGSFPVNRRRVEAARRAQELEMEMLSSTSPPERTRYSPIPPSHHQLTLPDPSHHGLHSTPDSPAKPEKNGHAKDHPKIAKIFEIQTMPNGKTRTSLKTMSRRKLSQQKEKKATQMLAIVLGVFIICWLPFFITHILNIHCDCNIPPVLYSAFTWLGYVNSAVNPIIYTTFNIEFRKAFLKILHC
# “And” between values parts separate entries of the source, which are not always exact repeats. Identical values can stand only once. Inconclusive results, whose numbers are uncertain, are shown with a selection of clear calls. Potencies of inconclusive entries are doubtful fits and often do not repeat. The source made the active and inactive calls.
# Test system: not listed separately
# Experiment: cAMP Responsive Elements (CRE) small molecule antagonists, cell-based qHTS assay (AID 1963591; active means well fitted inhibition curve with a large enough effect in the signal ratio in the repeat runs, not every such curve was filed as active; inconclusive means weak or mixed curves, or effect the other way; the % refers to the signal ratio)
# Settings: CRE-bla HEK293T, beta-lactamase FRET ratio; activity change, negative = inhibition: at 92.4 µM (top of the series; the call rests on the fitted dose curve and not on this point) unless noted
# In short: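 CRE-bla HEK293T cells plated 18 h, then given compound plus NKH477 at 0.25 uM final for 3 h at 37C. Beta-lactamase reporter read with LiveBLAzer B/G FRET substrate after 2 h at room temperature.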
# On the % scale 0 is the no-effect control and ±100 the full control effect; potency means the concentration at half of the fitted maximal effect.
SMILES,"activity change, negative = inhibition",Potency
O=C(c1ccccc1O)c1ccccc1O,inactive: -16.3%,–
COCc1ccc(COC)cc1,inactive: -7.8%,–
C[C@H]1O[C@H](O[C@H]2[C@H](O)[C@@H](O)[C@@H](O[C@H]3[C@H](O)[C@@H](O)[C@H](O)O[C@@H]3CO)O[C@@H]2CO)[C@H](O)[C@@H](O)[C@@H]1N[C@H]1C=C(CO)[C@@H](O)[C@H](O)[C@H]1O,inactive: 7.85% [at 42.4 µM],–
COC(=O)c1ccc([N+](=O)[O-])cc1,inactive: -1.15%,–
O=C(OCC(COC(=O)c1cccnc1)(COC(=O)c1cccnc1)COC(=O)c1cccnc1)c1cccnc1,–,"inconclusive: 11.9 µM [activator, partial curve, poor fit]"
CCOC(=O)c1cccnc1,inconclusive: -8.35% [at 42.4 µM],–
Clc1ccccc1CN1CCc2sccc2C1,–,"inconclusive: 33.5 µM [fluorescent, partial curve, poor fit]"
CC(C)c1cccc(C(C)C)c1,–,inactive
NC12CC3CC(CC(C3)C1)C2,inactive: -8.87% [at 42.4 µM],–
CCCC(=O)OCc1ccccc1,inactive: 2.81%,–
C=CC(=O)OCCOC1C2CCC1C1CC=CC12 (stereo not drawn),inactive: -8.52% [at 18.9 µM],–
CC(=O)Nc1ccc(N)cc1,inactive: 1.4%,–
C=CCN(CC=C)CC=C,inactive: 0.143%,–
C=CC(=C)CCCC(C)(C)OC(C)=O,inconclusive: 2.5%,–
CCCCCCC(=O)c1ccccc1,inactive: -4.44%,–
O=C(O)C(=O)Nc1cccc(-c2nn[nH]n2)c1,inactive: 5.25% [at 42.4 µM],–
CC(CN(CCN(CC(C)OCCO)CC(C)OCCO)CC(C)OCCO)OCCO (stereo not drawn),inactive: -1.5%,–
CC(=O)C(=O)CC(C)C,inactive: 4.87%,–
O=c1[nH]c(=O)c2cn[nH]c2[nH]1,inactive: -15.2%,–
C=Cc1ccc(C(C)(C)C)cc1,inactive: -3.2%,–
Cc1cc(C)c(N=Nc2c(O)c(S(=O)(=O)O)cc3cc(S(=O)(=O)O)ccc23)cc1C,inactive: -0.183% [at 8.39 µM],–
O=C1c2ccccc2C(=O)c2cc(S(=O)(=O)O)ccc21,inactive: 9.09%,–
CC(C)OC(=O)C(C(=O)OC(C)C)=C1SC=CS1,–,inconclusive: 33.5 µM
C=CC(=O)OCCOC(=O)C=C,inactive: 13.1%,–

# Molecular target: D(2) dopamine receptor (Homo sapiens) (UniProt P14416)
# Experiment: Dopamine D2 receptor (DRD2) small molecule antagonists, cell-based qHTS assay (AID 1963595; active means well fitted inhibition curve with a large enough effect in the signal ratio in the repeat runs, with a control signal flat; inconclusive means weak or mixed curves, or effect the other way; the % refers to the signal ratio)
# Settings: HEK293-DRD2 cAMP HTRF antagonist mode; activity change, negative = inhibition: at 92.4 µM (top of the series) unless noted
# In short: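 Stable D2 receptor HEK293 line, 24 h after seeding. Compound preincubated 10 min, then quinpirole (12 nM) with forskolin analogue NKH477 (200 nM), 30 min, room temperature. Detection by time-resolved FRET of cAMP.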
SMILES,Potency,"activity change, negative = inhibition"
NCCS(=O)(=O)O,inactive,–
NC(=O)c1ncn([C@@H]2O[C@H](CO)[C@@H](O)[C@H]2O)c1O,–,inactive: -4.95% [at 42.5 µM]
N[C@@H](CCC(=O)N[C@@H](CS)C(=O)NCC(=O)O)C(=O)O,–,inconclusive: -0.752% [at 18.9 µM]
CNC[C@H](O)c1ccc(O)c(O)c1,"inconclusive: 68.7 µM [inhibitor, single point] and active: 13 µM",–
